# Experimental data published in PubChem BioAssay AID2685 (National Center for Advancing Translational Sciences (NCATS), 2010).
# The other results are listed elsewhere or left out. Further columns of the screen follow, without active or inactive calls. Most of these compounds were active or inconclusive in the main read-out, so they are no random draw. Words in brackets tell the shape of the fitted curve; partial curves, single points and poor fits give uncertain potencies.
# Assay: qHTS Assay for Lipid Storage Modulators in Drosophila S3 Cells;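 as to cell number change: cells counted by Cell Tracker Red CMTPX staining in the red channel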
# Details: BODIPY lipid droplet fluorescence, 18-24 h; for cell number change: measured here: cell count max response, cells fed with added oleic acid
# Method in brief: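 Drosophila S3 cells got compounds at several concentrations plus oleic acid (400 uM solution). Laser-scanning cytometry with 488 nm excitation read lipid droplets at 500-530 nm and cells at 575-640 nm. Percent activity was relative to 20 uM Triacsin C.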
# [1] = measured here: cell number channel AC50, cells fed with added oleic acid
# [2] = measured here: lipid fluorescence (Fed channel) AC50, cells fed with added oleic acid
Structure (SMILES),cell number change,AC50 [1],AC50 [2]
Cc1nn(-c2ccccc2)c(Cl)c1/C=N/NC(=O)C1COc2ccccc2O1 (stereo not drawn),3.69%,–,–
c1ccc(CCn2c3ccccc3c3nnc(SCc4ccc5nonc5c4)nc32)cc1,–,"3.26 µM [rising, partial curve]","1.3 µM [rising, full curve]"
CCN(Cc1ccccc1)C(=O)COc1ccccc1,20.2%,–,"29.1 µM [rising, single point]"
CCOc1ccc(NC2=CC(=O)CC(c3ccco3)C2)cc1 (stereo not drawn),-2.88%,–,–
COc1ccc(S(=O)(=O)N2CCC3(CC2)OCCO3)cc1,-26.2%,–,–
COc1ccccc1NC(=S)NC(=O)C(C)C,–,–,"0.731 µM [falling, single point]"
CCNc1ccc(S(=O)(=O)NCCN(C)C)cc1[N+](=O)[O-],-37.3%,"0.0058 µM [falling, full curve, poor fit]","9.2 µM [falling, partial curve]"
CC(C)C12CN3CC(C(C)C)(CN(C1)C3c1ccc3c(c1)OCO3)C2=O (stereo not drawn),–,–,"4.61 µM [rising, single point]"
Cc1ccsc1CN(C)Cc1nc(C2CC2)no1,-27.2%,–,"29.1 µM [falling, single point]"
O=C(Nc1ccccc1-c1ccccc1)c1ccc(Br)o1,-0.621%,"1.64 µM [rising, partial curve]","1.3 µM [rising, partial curve]"
COC(=O)Cn1nnc(N2CCOCC2)n1,27.3%,–,"32.6 µM [rising, partial curve, poor fit]"
Cc1c(C(=O)Nc2ccc(Cl)cc2)c2ccccn2c1C(=O)c1ccccc1,-21.8%,–,"18.4 µM [falling, partial curve]"
O=C(N/N=C/c1cccnc1)C1CCCN(S(=O)(=O)c2ccccc2)C1 (stereo not drawn),–,"6.51 µM [rising, single point]",–
COc1ccc(Cl)cc1C(=O)Nc1ccncc1,-17.7%,–,–
COc1cc(/C=C/C(=O)OCC(=O)N2c3ccccc3NC(=O)C2(C)C)cc(OC)c1OC,-17.7%,–,–
CCOc1ccc(C(=O)/C=C/Nc2ccc(S(=O)(=O)Nc3onc(C)c3C)cc2)cc1,12.5%,–,"5.8 µM [rising, single point]"
CC(C)N1CCC(N2CCN(Cc3cnc(-c4ccccc4)s3)CC2CCO)CC1 (stereo not drawn),-5.39%,–,"4.11 µM [falling, partial curve, poor fit]"
COc1ccc(Nc2nc(-c3cccnc3)nc3ccccc23)cn1,-39.7%,"2.31 µM [falling, full curve, poor fit]",–
COC(=O)CNC(=O)C1CC(=O)N(CCc2ccc(F)cc2)C1 (stereo not drawn),11.8%,–,"6.51 µM [rising, single point]"
Cc1ccc(CNC(=O)CN(CCc2ccccc2)S(C)(=O)=O)cc1,-10.6%,"0.092 µM [falling, full curve, poor fit]","0.116 µM [falling, full curve, poor fit]"
COc1cc(/C=N/Nc2nc3ccccc3[nH]2)ccc1O,-19.9%,–,"16.4 µM [falling, single point]"

# A few values from the results shown.
# Under AC50 [2], O=C(Nc1ccccc1-c1ccccc1)c1ccc(Br)o1 has 1.3 µM [rising, partial curve]
# Under cell number change, COc1cc(/C=C/C(=O)OCC(=O)N2c3ccccc3NC(=O)C2(C)C)cc(OC)c1OC has -17.7%

# The listing continues.

Structure (SMILES),cell number change,AC50 [1],AC50 [2]
CCCCC(=O)N/N=C/c1sccc1C,-10.6%,–,"0.164 µM [rising, full curve]"
COc1ccc(C(=S)N2CCOCC2)cc1OC(=O)c1ccccc1,41.4%,"18.4 µM [rising, partial curve, poor fit]","29.1 µM [rising, single point]"
Clc1ccc(-n2nnc(-c3cccnc3Cl)n2)cn1,-15.5%,–,"9.2 µM [falling, partial curve]"
COc1ccc2cnnc(SCC(=O)Nc3ccc(C(C)=O)cc3)c2c1OC,-32.6%,"0.00517 µM [falling, full curve, poor fit]",–
COCCn1c(=NC(=O)c2ccco2)sc2cc(C(=O)OC)ccc21,-12.6%,–,–
C=CCOC(=O)C(=O)/C=C/c1coc2ccccc2c1=O,-31.3%,"25.9 µM [falling, single point]","18.4 µM [falling, single point]"
O=C1CCC/C1=C/Nc1ccc2c(c1)OCO2,–,–,"0.13 µM [rising, full curve]"
CCNCc1cc(Cl)cc(OC)c1OC(C)C,8.37%,–,"29.1 µM [rising, single point]"
CN=C(Nc1cccc(OC)c1)SC1CC(=O)N(c2ccc(C(=O)O)cc2)C1=O (stereo not drawn),–,–,"0.0259 µM [falling, full curve, poor fit]"
Cc1ccc(C)c(NC(=O)Cn2nnc(C(=O)NCc3ccco3)c2N)c1,20.9%,–,–
Cc1ccc(NC(=O)C(C)N2C(=O)c3ccccc3C2=O)cc1C (stereo not drawn),-6.61%,–,"6.51 µM [rising, single point]"
COc1ccc(C(CCNC(C)c2ccccc2)C(C)C)cc1 (stereo not drawn),23.1%,–,"29.1 µM [rising, single point]"
CN(C)S(=O)(=O)c1ccc(NC(=O)c2cc3ccccc3o2)cc1,-14.3%,–,"0.461 µM [rising, full curve]"
O=C(CN1CCN(c2cccc(Cl)c2)CC1)Nc1nccs1,-24.1%,–,–
CC(NC(=O)Cn1nc(C(F)(F)F)c2c1CCC2)c1ccccc1 (stereo not drawn),–,–,"1.16 µM [rising, single point]"
CCC1CN(C(=O)N2CCC(C(=O)NCc3ccc(F)cc3)CC2)c2ccccc2O1 (stereo not drawn),2.65%,–,–
COc1ccc(CN(C(=O)Cn2nnc3ccccc32)C(C(=O)NC(C)(C)C)c2ccco2)cc1 (stereo not drawn),16.8%,–,–
O=C(Cc1cccc2ccccc12)Nc1nc2ccccc2[nH]1,7.13%,"1.3 µM [rising, partial curve, poor fit]",–
Cc1noc(C)c1COc1cccc(C(=O)OC(C)C#N)c1 (stereo not drawn),–,–,"6.51 µM [rising, single point]"
CN1CCN(CC(O)COCc2ccc3c(c2)OCO3)CC1 (stereo not drawn),32.8%,"0.326 µM [rising, full curve]","6.51 µM [rising, single point]"
O=C(Cn1nnc(-c2ccccc2)n1)OCc1ccccc1,8.33%,–,"0.651 µM [rising, full curve, poor fit]"

Structure (SMILES),cell number change,AC50 [1],AC50 [2]
CN(CCOc1ccccc1)C(=O)c1ccc(F)c(S(=O)(=O)N2CCOCC2)c1,15%,–,–
CCN(C(=O)CSc1ncnc2sccc12)c1c(N)n(Cc2ccccc2)c(=O)[nH]c1=O,8.33%,–,"6.51 µM [rising, single point]"
CN(C(=O)CN1C(=O)NC(C)(CCc2ccccc2)C1=O)c1ccccc1 (stereo not drawn),-6.5%,–,–
O=C(C#Cc1ccccc1)c1ccco1,–,–,"1.3 µM [falling, full curve]"
C=CCOc1ccc(/C=C/C(=O)OCC(=O)NCc2ccco2)cc1,–,–,"2.31 µM [falling, partial curve]"
CCn1c2ccccc2c2cc(/C=N/O)ccc21,19.8%,–,"10.3 µM [rising, partial curve, poor fit]"
Cc1ccc(OCc2cc(C(=O)N3CCc4[nH]cnc4C3c3ccccn3)no2)cc1C (stereo not drawn),7.65%,–,"6.51 µM [rising, partial curve, poor fit]"
COc1ccc(NC(=O)CN(c2ccc(F)cc2)S(=O)(=O)c2ccccc2)c(OC)c1,-50.7%,"6.51 µM [falling, partial curve]","7.31 µM [falling, partial curve]"
N#C/C(=C/c1ccc(N2CCOCC2)o1)C(=O)N1CCOCC1,8.82%,–,"20.6 µM [falling, single point]"
CCN(CC)c1ccc2cc(C(N)=O)c(=N)oc2c1,-53.3%,"0.0259 µM [falling, full curve, poor fit]","0.0291 µM [falling, full curve, poor fit]"
COc1ccc(C2C(C(C)=O)=C(O)C(=O)N2CCc2c[nH]c3ccccc23)cc1 (stereo not drawn),34%,"29.1 µM [rising, single point]",–
CCCc1nnc(NC(=O)CCC(=O)N2CCC(Cc3ccccc3)CC2)s1,-4.13%,–,"0.58 µM [rising, single point]"
CCC(C)(C)NC(=O)C(c1cccc(OC)c1OC)N(C(=O)CCC(=O)Nc1cc(C)on1)C(C)C (stereo not drawn),24.2%,"2.91 µM [rising, full curve, poor fit]",–
CCC(C)C(=O)Nc1nc(C)c(-c2csc(Nc3cc(OC)ccc3OC)n2)s1 (stereo not drawn),–,"6.51 µM [falling, single point]",–
O=c1c2ccccc2[nH]c(=S)n1Cc1cccs1,28.5%,–,"9.2 µM [rising, partial curve]"
O=C(NCC1CCCO1)c1ccccc1NS(=O)(=O)c1ccc(F)cc1 (stereo not drawn),32.2%,"29.1 µM [rising, single point]","25.9 µM [rising, single point]"
Cc1ccc(Oc2ncnc(N)c2[N+](=O)[O-])cc1,-36.4%,"8.2 µM [falling, partial curve]","4.61 µM [falling, full curve]"
Cc1ccc(/C=C/S(=O)(=O)NCC(=O)OCC(=O)Nc2ccc(C(=O)N(C)C)cc2)cc1,15.8%,–,"29.1 µM [rising, single point]"
COc1ccc(OCC(=O)N2c3ccc(C)cc3C3CN(C)CCC32)cc1 (stereo not drawn),–,"0.164 µM [rising, single point]",–
CC(NC(=O)COC(=O)c1cc(NS(=O)(=O)c2ccc(Cl)c([N+](=O)[O-])c2)ccc1O)C1CC2CCC1C2 (stereo not drawn),-39.2%,"20.6 µM [falling, partial curve]","13 µM [falling, partial curve]"
Cc1ccc(S(=O)(=O)CCSc2n[nH]c(=O)n2-c2ccc3c(c2)OCCO3)cc1,2.19%,–,–
